Holding throughout (assay): co-IP
One assay addresses Numb-HA (UniProt Q9QZS3).
In assay [1] the target is HA-tagged Numb with deletion of the N-terminus (aa1-25) (UniProt Q9QZS3).
Assay [2] has as its target HA-tagged Numb with deletion of the PTB domain (aa26-173) (UniProt Q9QZS3).
Assay [3] has as its target HA-tagged Numb N+PTB domain (aa1-173) (UniProt Q9QZS3).
For assay [4], the target named is endogenous Numb (mouse (endogenous in NIH3T3)) (UniProt Q9QZS3).

Amino acid sequences for entries named in this document (tags omitted). A change or cut given only in a name is not applied to a line headed by its entry. Residues count along the entry.
UniProt Q9QZS3, whole entry: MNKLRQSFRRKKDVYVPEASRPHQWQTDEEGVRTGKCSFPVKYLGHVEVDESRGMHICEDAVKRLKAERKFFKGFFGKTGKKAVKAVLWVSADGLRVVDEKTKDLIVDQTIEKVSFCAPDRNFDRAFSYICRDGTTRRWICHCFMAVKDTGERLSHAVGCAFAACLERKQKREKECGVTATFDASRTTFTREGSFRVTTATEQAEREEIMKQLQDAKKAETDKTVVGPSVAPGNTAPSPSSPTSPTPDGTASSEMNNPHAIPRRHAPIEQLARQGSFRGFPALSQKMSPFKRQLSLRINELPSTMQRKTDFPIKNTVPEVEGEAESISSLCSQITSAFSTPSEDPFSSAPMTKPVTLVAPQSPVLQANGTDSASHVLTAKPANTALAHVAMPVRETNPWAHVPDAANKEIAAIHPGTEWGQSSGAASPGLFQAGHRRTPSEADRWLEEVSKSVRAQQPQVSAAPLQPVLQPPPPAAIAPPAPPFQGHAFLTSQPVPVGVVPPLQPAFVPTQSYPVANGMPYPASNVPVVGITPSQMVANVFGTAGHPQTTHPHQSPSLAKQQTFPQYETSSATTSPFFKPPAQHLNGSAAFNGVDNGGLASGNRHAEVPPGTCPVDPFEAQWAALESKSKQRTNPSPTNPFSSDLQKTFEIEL
UniProt Q9QZS3, 1-173: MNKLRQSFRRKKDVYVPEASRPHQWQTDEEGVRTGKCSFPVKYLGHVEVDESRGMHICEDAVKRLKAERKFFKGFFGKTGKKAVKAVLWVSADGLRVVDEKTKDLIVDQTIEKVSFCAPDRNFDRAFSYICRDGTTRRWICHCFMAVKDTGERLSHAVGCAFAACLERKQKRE
UniProt Q9QZS3, 26-653, stated change not applied: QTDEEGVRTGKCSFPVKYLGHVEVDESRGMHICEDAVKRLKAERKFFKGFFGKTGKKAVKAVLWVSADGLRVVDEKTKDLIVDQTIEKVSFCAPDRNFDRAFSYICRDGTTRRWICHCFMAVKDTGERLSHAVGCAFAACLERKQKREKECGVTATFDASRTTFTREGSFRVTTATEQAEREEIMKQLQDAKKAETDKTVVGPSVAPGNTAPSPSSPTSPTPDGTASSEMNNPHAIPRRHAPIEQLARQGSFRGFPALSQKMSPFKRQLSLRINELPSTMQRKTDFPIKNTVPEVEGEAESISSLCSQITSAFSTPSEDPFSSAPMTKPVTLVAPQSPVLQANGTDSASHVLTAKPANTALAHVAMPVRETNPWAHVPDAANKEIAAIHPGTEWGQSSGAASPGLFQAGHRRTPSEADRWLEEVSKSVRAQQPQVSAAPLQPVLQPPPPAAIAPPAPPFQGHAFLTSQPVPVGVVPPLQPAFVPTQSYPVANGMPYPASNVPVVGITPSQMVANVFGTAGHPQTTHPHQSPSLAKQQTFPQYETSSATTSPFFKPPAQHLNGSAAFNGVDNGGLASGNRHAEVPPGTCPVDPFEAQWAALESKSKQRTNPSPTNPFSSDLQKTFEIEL

These are yes or no findings as the source states them, for the method shown. In cells and extracts the contact can be indirect. Some binding calls cover weakened binding; strength is not graded here. For some assays here: Tags and fused reporters may be left off the sequences shown.

B1: Ptch1-EGFP (receptor, UniProt Q61115 1-1434)
chain: MASAGNAAGALGRQAGGGRRRRTGGPHRAAPDRDYLHRPSYCDAAFALEQISKGKATGRKAPLWLRAKFQRLLFKLGCYIQKNCGKFLVVGLLIFGAFAVGLKAANLETNVEELWVEVGGRVSRELNYTRQKIGEEAMFNPQLMIQTPKEEGANVLTTEALLQHLDSALQASRVHVYMYNRQWKLEHLCYKSGELITETGYMDQIIEYLYPCLIITPLDCFWEGAKLQSGTAYLLGKPPLRWTNFDPLEFLEELKKINYQVDSWEEMLNKAEVGHGYMDRPCLNPADPDCPATAPNKNSTKPLDVALVLNGGCQGLSRKYMHWQEELIVGGTVKNATGKLVSAHALQTMFQLMTPKQMYEHFRGYDYVSHINWNEDRAAAILEAWQRTYVEVVHQSVAPNSTQKVLPFTTTTLDDILKSFSDVSVIRVASGYLLMLAYACLTMLRWDCSKSQGAVGLAGVLLVALSVAAGLGLCSLIGISFNAATTQVLPFLALGVGVDDVFLLAHAFSETGQNKRIPFEDRTGECLKRTGASVALTSISNVTAFFMAALIPIPALRAFSLQAAVVVVFNFAMVLLIFPAILSMDLYRREDRRLDIFCCFTSPCVSRVIQVEPQAYTEPHSNTRYSPPPPYTSHSFAHETHITMQSTVQLRTEYDPHTHVYYTTAEPRSEISVQPVTVTQDNLSCQSPESTSSTRDLLSQFSDSSLHCLEPPCTKWTLSSFAEKHYAPFLLKPKAKVVVILLFLGLLGVSLYGTTRVRDGLDLTDIVPRETREYDFIAAQFKYFSFYNMYIVTQKADYPNIQHLLYDLHKSFSNVKYVMLEENKQLPQMWLHYFRDWLQGLQDAFDSDWETGRIMPNNYKNGSDDGVLAYKLLVQTGSRDKPIDISQLTKQRLVDADGIINPSAFYIYLTAWVSNDPVAYAASQANIRPHRPEWVHDKADYMPETRLRIPAAEPIEYAQFPFYLNGLRDTSDFVEAIEKVRVICNNYTSLGLSSYPNGYPFLFWEQYISLRHWLLLSISVVLACTFLVCAVFLLNPWTAGIIVMVLALMTVELFGMMGLIGIKLSAVPVVILIASVGIGVEFTVHVALAFLTAIGDKNHRAMLALEHMFAPVLDGAVSTLLGVLMLAGSEFDFIVRYFFAVLAILTVLGVLNGLVLLPVLLSFFGPCPEVSPANGLNRLPTPSPEPPPSVVRFAVPPGHTNNGSDSSDSEYSSQTTVSGISEELRQYEAQQGAGGPAHQVIVEATENPVFARSTVVHPDSRHQPPLTPRQQPHLDSGSLSPGRQGQQPRRDPPREGLRPPPYRPRRDAFEISTEGHSGPSNRDRSGPRGARSHNPRNPTSTAMGSSVPSYCQPITTVTASASVTVAVHPPPGPGRNPRGGPCPGYESYPETDHGVFEDPHVPFHVRCERRDSKVEVIELQDVECEERPWGSSSN
For B1, in the assay with Numb-HA, the binding entry is “binds”.

B2: Ptch1-V5 (receptor, UniProt Q61115 1-1434)
chain: B1 chain
With B2, the binding result was “no binding” in assay [1], “no binding” in assay [2] and “binds” in assay [3].

B3: endogenous Ptch1 (receptor, UniProt Q61115 1-1434)
chain: B1 chain
On to B3, for which the binding result in assay [4] is listed as “binds”.

(Values after article doi:10.1101/2022.10.10.511655.)
